PubChem BioAssay AID1259260 | Sanger Institute | 2017
This is one part, drawn at random, of 794 reagents. In the full data, 13 (1.6%) are marked active. 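Calls reflect only knock-down without drug; synergy above 0.15 was grouped apart and does not change the call.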 A number with no mark means an inactive call. No viability above 1 is reported: the scale is capped. Not all columns of the deposit are shown. The record does not give: the amount of reagent, the time to read-out.

- Test: 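Essential and drug-synergistic kinases in a colorectal cancer cell line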 (primary screen)
- Cell system: human NCI-H716 colorectal cancer cells
- Reagents: siRNA pool against human genes
- Treatment: anchor drugs BYL719 (alpelisib) 1 µM, cetuximab 5 µg/ml or trametinib 10 nM, each at a dose chosen to harm viability only mildly; DMSO vehicle for the knock-down-alone arm
- Read-out: 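Replicate-averaged viability relative to a non-targeting pool, a robust z-score for knock-down alone, and a synergy score per anchor drug versus each agent alone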
- Scale: viability robust z-score, siRNA alone: higher = more surviving cells; below -3 called essential; viability vs control, no drug: higher = more surviving cells
- Units: viability vs control, no drug in fraction of control
- Active means: 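a knock-down counts as essential if its no-drug robust z-score is lower than -3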
- Meaning of the calls: active = essential (knock-down alone lowers viability); inactive = no essential effect

What did the screen give for PIP5K1B (GeneID 8395)?
viability robust z-score, siRNA alone: 0.153; viability vs control, no drug: 0.953

With MAP3K3 (GeneID 4215), what was measured?
viability robust z-score, siRNA alone: 0.283; viability vs control, no drug: 0.967

With PASK (GeneID 23178), what was measured?
viability robust z-score, siRNA alone: 0.602; viability vs control, no drug: 1

With LMTK3 (GeneID 114783), what does the deposit list?
viability robust z-score, siRNA alone: -2.45; viability vs control, no drug: 0.683

How did the screen score PLK2 (GeneID 10769)?
viability robust z-score, siRNA alone: 0.246; viability vs control, no drug: 0.963

For ROS1 (GeneID 6098), what does the deposit list?
viability robust z-score, siRNA alone: -0.402; viability vs control, no drug: 0.896

How did the screen score SYK (GeneID 6850)?
viability robust z-score, siRNA alone: -1.85; viability vs control, no drug: 0.745

With STK11 (GeneID 6794), what was measured?
viability robust z-score, siRNA alone: -1.69; viability vs control, no drug: 0.762

Ordered by “viability vs control, no drug” (high to low): 2 of the entries above.
PLK2 (GeneID 10769) → viability robust z-score, siRNA alone = 0.246; viability vs control, no drug = 0.963
ROS1 (GeneID 6098) → viability robust z-score, siRNA alone = -0.402; viability vs control, no drug = 0.896

Continued:
Which result is listed for CAMK1D (GeneID 57118)?
viability robust z-score, siRNA alone: -1.16; viability vs control, no drug: 0.817

With TRIM27 (GeneID 5987), what does the deposit list?
viability robust z-score, siRNA alone: -0.119; viability vs control, no drug: 0.925

Which result is listed for SRPK3 (GeneID 26576)?
viability robust z-score, siRNA alone: 0.602; viability vs control, no drug: 1

With CNOT1 (GeneID 23019), what does the deposit list?
viability robust z-score, siRNA alone: -2.62; viability vs control, no drug: 0.666

What did the screen give for PDGFRA (GeneID 5156)?
viability robust z-score, siRNA alone: 0.602; viability vs control, no drug: 1

Which result is listed for SOX9 (GeneID 6662)?
viability robust z-score, siRNA alone: 0.602; viability vs control, no drug: 1

For CMPK1 (GeneID 51727), what was measured?
viability robust z-score, siRNA alone: 0.602; viability vs control, no drug: 1

How did the screen score NEK5 (GeneID 341676)?
viability robust z-score, siRNA alone: 0.602; viability vs control, no drug: 1

What did the screen give for LATS2 (GeneID 26524)?
viability robust z-score, siRNA alone: 0.602; viability vs control, no drug: 1

What did the screen give for DTYMK (GeneID 1841)?
viability robust z-score, siRNA alone: -1.7; viability vs control, no drug: 0.761

For ITPKC (GeneID 80271), what does the deposit list?
viability robust z-score, siRNA alone: -1.27; viability vs control, no drug: 0.805
